Test results reported in patent US8173840B2, “Compounds with high therapeutic index” (Signature R&D Holdings, LLC, priority 2003, dated 2012).
“Also recorded” adds a separate entry of the source. Like-named read-outs stand apart in the source and are kept apart here. No dose or concentration is given here for some results.

Experiment: Benefits found for amino acid derivatives of drugs (Table 1, key a-q)
Parameters: key: Improved taste smell; Desired Octanol/water partition coefficient (i.e. solubility in water); c: Improved stability in vitro and in vivo; Penetration of blood-brain barrier; Elimination of first pass effect in liver; Reduction of enterohepatic recirculation; g: Painless injections with parenteral formulations; h: Improved bioavailability; Increased rate of absorption; j: Reduced side effects; k: Dose proportionability; Selective hydrolysis of the derivative at site of actions; m: Controlled release properties; n: Targeted drug delivery; Reduction in toxicity, hence improved therapeutic ratio; p: Reduced dose; q: Alteration of metabolic pathway to deliver more drug at site of action
[1] = amino acid derivatives of the named drug, each letter is one benefit of key a-q

Question: For `Nc1nc2c(ncn2COCCO)c(=O)[nH]1` [Acyclovir], which Improvements with derivatives [1] is on record?
Answer: b and c and h and i and j and k and o and p

Question: Which Improvements with derivatives [1] does the source give for `CCOC(=O)[C@H](CCc1ccccc1)N[C@H]1CCc2ccccc2N(CC(=O)O)C1=O` [Benazepril] here?
Answer: j and o

Question: For `CCOC(=O)[C@H](CCc1ccccc1)N[C@@H](C)C(=O)N1CCC[C@H]1C(=O)O` [Enalapril, reference compound], which Improvements with derivatives [1] is on record?
Answer: j and o

Question: Which Improvements with derivatives [1] does the source give for `Cc1c(-c2ccccc2)oc2c(C(=O)OCCN3CCCCC3)cccc2c1=O` [Flavoxate] here?
Answer: b and h and i and j and k and l and o and p

Question: With `CCOC(=O)[C@H](CCc1ccccc1)N[C@@H](C)C(=O)N1Cc2cc(OC)c(OC)cc2C[C@H]1C(=O)O` [Moexipril] as the compound, how does the Improvements with derivatives [1] read?
Answer: j and o

Question: With `CC(C)(C)NCC(O)COc1cccc2c1CC(O)C(O)C2` (stereo not shown) [Nadolol] as the compound, how does the Improvements with derivatives [1] read?
Answer: b and h and i and j and k and l and o and p

Question: Which Improvements with derivatives [1] does the source give for `Cc1c(O)cccc1C(=O)N[C@@H](CSc1ccccc1)[C@H](O)CN1C[C@H]2CCCC[C@H]2C[C@H]1C(=O)NC(C)(C)C` [Nelfinavir] here?
Answer: b and h and i and j and k and o and p

Question: For `CCC[C@H](N[C@@H](C)C(=O)N1[C@H](C(=O)O)C[C@@H]2CCCC[C@@H]21)C(=O)OCC` [Perindopril], which Improvements with derivatives [1] is on record?
Answer: j and o

Question: For `CC(C)c1cccc(C(C)C)c1O` [Propofol injection, 2,6-diisopropylphenol, reference compound], which Improvements with derivatives is on record?
Answer: b, c, d, g,; also recorded: h, j, k, l,; also recorded: m, n, o, p, q

Question: With `CCC(=O)O[C@](Cc1ccccc1)(c1ccccc1)[C@H](C)CN(C)C` [Propoxyphene] as the compound, how does the Improvements with derivatives read?
Answer: a, b, c, h, i, j,; also recorded: k, l, o, p

Question: With `CCOC(=O)[C@H](CCc1ccccc1)N[C@@H](C)C(=O)N1[C@H](C(=O)O)C[C@@H]2CCC[C@@H]21` [Ramipril] as the compound, how does the Improvements with derivatives [1] read?
Answer: j and o

Question: Which Improvements with derivatives [1] does the source give for `O=C(Oc1ccccc1C(=O)O)c1ccccc1O` [Salsalate] here?
Answer: b and c and h and i and j and k and o and p

Question: With `CCOC(=O)[C@H](CCc1ccccc1)N[C@@H](C)C(=O)N1[C@H](C(=O)O)C[C@H]2CCCC[C@@H]21` [Trandolapril] as the compound, how does the Improvements with derivatives [1] read?
Answer: j and o

Question: With `N[C@@H]1[C@H]2CN(c3nc4c(cc3F)c(=O)c(C(=O)O)cn4-c3ccc(F)cc3F)C[C@@H]12` [Trovafloxacin] as the compound, how does the Improvements with derivatives [1] read?
Answer: a and b and e and h and j and k and o and p

Question: With `CCCCC(=O)N(Cc1ccc(-c2ccccc2-c2nnn[nH]2)cc1)[C@H](C(=O)O)C(C)C` [Valsartan] as the compound, how does the Improvements with derivatives [1] read?
Answer: b and f and i and j and k and l and o and p

Question: Which Improvements with derivatives [1] does the source give for `CC(c1cc2ccccc2s1)N(O)C(N)=O` (stereo not shown) [Zileuton] here?
Answer: b and h and i and j and k and o and p
